Measurements as given in patent publication US20250121082A1 (SHANDONG BOAN BIOTECHNOLOGY, published 2025).
No constants are given. Whether binding was seen depends on the method and setting. Some binding calls cover weakened binding; strength is not graded here. Blank lines part the entries; values can stand above or below the binder they belong to.

Key:
[1] = target: T1, Human CD228 protein (human, UniProt P08582 20-708, limits assumed); assay: ELISA, plate coated with human CD228 protein
T1 construct: Recombinant protein made in CHO cells, purified over a Ni column; The printed entry begins with the leader (MRGPSG...) and ends with ten His; also called hCD228; CD228-His protein
T1 sequence: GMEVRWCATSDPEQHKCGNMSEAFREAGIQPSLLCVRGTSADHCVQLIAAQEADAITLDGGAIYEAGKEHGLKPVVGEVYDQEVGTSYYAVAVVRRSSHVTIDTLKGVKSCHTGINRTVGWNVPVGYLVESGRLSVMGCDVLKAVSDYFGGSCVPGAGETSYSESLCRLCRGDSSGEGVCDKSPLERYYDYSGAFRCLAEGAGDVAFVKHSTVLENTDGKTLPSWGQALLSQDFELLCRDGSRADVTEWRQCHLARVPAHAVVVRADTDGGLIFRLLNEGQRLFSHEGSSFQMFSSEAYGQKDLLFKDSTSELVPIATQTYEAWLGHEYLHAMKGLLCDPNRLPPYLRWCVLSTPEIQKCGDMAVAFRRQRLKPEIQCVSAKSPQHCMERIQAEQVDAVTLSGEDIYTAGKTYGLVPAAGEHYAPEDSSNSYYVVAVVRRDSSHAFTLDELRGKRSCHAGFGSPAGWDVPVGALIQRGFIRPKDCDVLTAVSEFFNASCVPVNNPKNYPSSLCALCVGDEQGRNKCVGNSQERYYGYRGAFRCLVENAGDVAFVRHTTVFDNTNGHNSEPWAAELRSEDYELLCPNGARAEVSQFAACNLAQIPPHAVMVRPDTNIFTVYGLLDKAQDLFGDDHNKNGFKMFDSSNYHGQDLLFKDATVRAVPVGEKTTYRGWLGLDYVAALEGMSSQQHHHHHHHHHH
Experimental: Human CD228 protein (prepared by Boan, 20201014, SEQ ID NO: 41) was diluted to 0.1 μg/mL with a carbonate-buffered saline (hereinafter referred to as CBS) at pH 9.6. Microplates were coated with the protein at 100 μL/well, and incubated at 4° C. overnight. After washing, the microplates were blocked with skimmed milk powder. The plates were washed, before antibodies diluted with PBST (phosphate-buffered saline, Solarbio P1010, +0.05% Tween20) were added at 100 μL/well. The diluted antibodies were intact antibodies comprising Fc, Fab and the constant region serially 3-fold diluted from 0.1 μg/mL to 8 concentrations with PBST. After washing the plates, goat anti-human IgG (H+L)/HRP (diluted at 1:5000, KPL, 474-1006) was added at 100 μL/well, and the plates were incubated at 37° C. for 1 h. After washing the plates, TMB (Beijing Makewonderbio, 1001) was added at 100 μL/well for chromogenesis, and after 10 min, 50 μL of 2 M H₂SO₄ was added to stop the chromogenesis. OD450 was measured on a microplate reader. The antibody hL49 targeting CD228 from Seagen was used as a reference antibody in this study and the following studies.

[2] = target: T2, Monkey CD228 protein (monkey); assay: SPR, BIAcore 8K
T2 sequence: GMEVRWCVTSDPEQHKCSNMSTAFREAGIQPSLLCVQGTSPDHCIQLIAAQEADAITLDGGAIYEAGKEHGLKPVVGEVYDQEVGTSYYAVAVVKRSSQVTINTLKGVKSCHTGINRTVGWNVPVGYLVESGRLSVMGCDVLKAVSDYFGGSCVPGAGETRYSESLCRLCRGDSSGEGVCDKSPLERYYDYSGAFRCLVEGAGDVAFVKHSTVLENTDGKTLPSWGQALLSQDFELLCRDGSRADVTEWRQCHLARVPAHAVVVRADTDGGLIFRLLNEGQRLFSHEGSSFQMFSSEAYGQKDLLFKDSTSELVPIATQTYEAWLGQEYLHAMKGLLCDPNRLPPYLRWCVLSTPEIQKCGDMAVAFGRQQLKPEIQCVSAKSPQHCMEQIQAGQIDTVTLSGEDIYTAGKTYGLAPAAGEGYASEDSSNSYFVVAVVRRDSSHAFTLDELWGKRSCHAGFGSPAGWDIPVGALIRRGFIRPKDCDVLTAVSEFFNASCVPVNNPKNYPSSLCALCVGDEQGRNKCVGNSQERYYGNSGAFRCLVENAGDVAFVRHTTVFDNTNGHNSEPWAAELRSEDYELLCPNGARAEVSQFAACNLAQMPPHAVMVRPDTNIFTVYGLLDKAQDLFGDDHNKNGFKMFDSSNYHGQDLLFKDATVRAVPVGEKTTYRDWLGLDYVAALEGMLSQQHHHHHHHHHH

[3] = target: T1, Human CD228 protein; assay: SPR, BIAcore 8K
[4] = target: T1, Human CD228 protein; assay: ELISA, plate coated with human CD228 protein at 0.1 ug/mL, goat anti-human IgG-HRP, OD450

- binding [1]: binds
- binding [2]: binds
- binding [3]: binds
- binding [4]: binds
B1: CA518 (antibody, human IgG1, kappa, V domains shown)
VH: EVQLVESGGGVVQPGRSLRLSCAASGFTFSSYAMHWVRQAPGKGLEWVAVISYDGSNKYHADSVKGRFTISRDNSKNTLFLQMNSLRAEDTAVYYCVRDVYHYGSRSPYYYGMDVWGQGTTVTVSS
VL: DIQMTQSPSSVSASVGDRVTITCRASQGISSWLAWYQQKPGKAPKLLIYAASSLQSGVPSRFSGSGSGTDFTLTISSLQPEDVATYYCQKYNSAPFTFGPGTKVDIKR
notes: Intact IgG1

- binding [2]: binds
B2: CA149 (antibody, human IgG1, kappa, V domains shown)
VH: EVQLVESGGGVVQPGRSLRLSCAASGFTFSSYAMHWVRQAPGKGLEWVAVISFDGSNKYYTDSVKGRFTISRDNSKNTLYLQMNSLRAEDTAVYYCAREVPYYYGSGPFDYWGQGTLVTVSS
VL: EIVLTQSPATLSVSPGERATLSCRASQSVSSNLAWYQQKPGQAPRHLIDGASSRASGIPDRFSGSGSGTDFTLTISRLEPEDFAVYYCQQYGSSPPFTFGPGTKVDIKR
notes: Intact IgG1; also called CA149 antibody

- binding [1]: binds
- binding [4]: binds
B3: reference antibody hL49 (antibody, human IgG1, kappa, V domains shown)
VH: QVQLQESGPGLVKPSETLSLTCTVSGDSITSGYWNWIRQPPGKGLEYIGYISDSGITYYNPSLKSRVTISRDTSKNQYSLKLSSVTAADTAVYYCARRTLATYYAMDYWGQGTLVTVSS
VL: DFVMTQSPLSLPVTLGQPASISCRASQSLVHSDGNTYLHWYQQRPGQSPRLLIYRVSNRFSGVPDRFSGSGSGTDFTLKISRVEAEDVGVYYCSQSTHVPPTFGQGTKLEIKR
notes: also called H149; hL49 analogy
